Source: patent publication US20070256687A1, “Enhanced Medical Product” (priority 2004, published 2007)
At least one structure is not confirmed: it was looked up by name or label, or the drawing left a doubt.

Assay: Emitted dose of volumetrically dosed API/excipient mixtures delivered by a proprietary DPI
Format: physicochemical
Conditions: excipient Respitose® + 10% micronized lactose, ratio API/excipient 1/44, proprietary DPI
Description: In the course of developing methods and products according to the present invention different APIs were mixed with excipients in different ratios. The objectives were to find inter alia suitable formulations and methods of filling doses, but also to optimize inhaler techniques and interaction between inhaler and dose container. Table 1 below discloses some examples of volumetrically dosed mixtures API/excipient and the resulting emitted dose when delivered by a proprietary DPI. […] The objective was to find suitable excipients and to see how different mixing ratios affected the emitted dose. The mixtures were produced under laboratory conditions in small quantities and remained quasi-stable under the run of tests. The emitted dose as percentage of total recovered dose was measured and the results were used in the development of the current invention.

SMILES: C[C@@H]1C[C@H]2[C@@H]3C[C@H](F)C4=CC(=O)C=C[C@]4(C)[C@@]3(F)[C@@H](O)C[C@]2(C)[C@@]1(O)C(=O)SCF [Fluticasone, reference compound]
- Emitted Dose in % of recovered dose: 88 % of recovered dose
- Retention in % of recovered dose: 12 % of recovered dose
